According to the supplement of paper PMC10849652:
Some of the results follow.

The chains behind the UniProt entries cited, without tags or fusion partners. Where a name states a change or a piece, a line headed by the entry shows the natural chain unless it says otherwise.
UniProt Q96CN7: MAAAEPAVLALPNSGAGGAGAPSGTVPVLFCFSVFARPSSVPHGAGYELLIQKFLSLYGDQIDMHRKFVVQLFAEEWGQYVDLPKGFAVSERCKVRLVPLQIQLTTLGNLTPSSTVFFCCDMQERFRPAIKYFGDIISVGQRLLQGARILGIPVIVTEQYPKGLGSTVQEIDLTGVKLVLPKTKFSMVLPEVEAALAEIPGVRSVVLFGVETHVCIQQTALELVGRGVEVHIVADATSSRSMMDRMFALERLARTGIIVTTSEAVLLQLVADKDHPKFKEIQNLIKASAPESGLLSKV
UniProt Q8TB96: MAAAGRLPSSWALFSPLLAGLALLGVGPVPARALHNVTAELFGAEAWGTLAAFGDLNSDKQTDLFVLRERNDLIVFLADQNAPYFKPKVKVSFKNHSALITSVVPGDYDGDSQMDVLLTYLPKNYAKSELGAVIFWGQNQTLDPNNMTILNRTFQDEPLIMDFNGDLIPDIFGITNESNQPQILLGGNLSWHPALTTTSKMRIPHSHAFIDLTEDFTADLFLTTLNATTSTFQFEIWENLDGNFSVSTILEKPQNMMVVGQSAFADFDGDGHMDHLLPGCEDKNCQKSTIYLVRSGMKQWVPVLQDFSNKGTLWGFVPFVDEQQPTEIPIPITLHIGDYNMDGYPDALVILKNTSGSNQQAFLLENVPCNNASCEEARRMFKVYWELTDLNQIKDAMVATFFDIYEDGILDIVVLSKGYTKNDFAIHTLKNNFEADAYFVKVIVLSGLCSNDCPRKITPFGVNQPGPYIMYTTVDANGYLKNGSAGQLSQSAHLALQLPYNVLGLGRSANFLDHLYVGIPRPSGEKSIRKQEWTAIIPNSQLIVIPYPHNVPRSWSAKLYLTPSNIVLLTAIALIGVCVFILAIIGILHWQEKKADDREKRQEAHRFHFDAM
UniProt O15357: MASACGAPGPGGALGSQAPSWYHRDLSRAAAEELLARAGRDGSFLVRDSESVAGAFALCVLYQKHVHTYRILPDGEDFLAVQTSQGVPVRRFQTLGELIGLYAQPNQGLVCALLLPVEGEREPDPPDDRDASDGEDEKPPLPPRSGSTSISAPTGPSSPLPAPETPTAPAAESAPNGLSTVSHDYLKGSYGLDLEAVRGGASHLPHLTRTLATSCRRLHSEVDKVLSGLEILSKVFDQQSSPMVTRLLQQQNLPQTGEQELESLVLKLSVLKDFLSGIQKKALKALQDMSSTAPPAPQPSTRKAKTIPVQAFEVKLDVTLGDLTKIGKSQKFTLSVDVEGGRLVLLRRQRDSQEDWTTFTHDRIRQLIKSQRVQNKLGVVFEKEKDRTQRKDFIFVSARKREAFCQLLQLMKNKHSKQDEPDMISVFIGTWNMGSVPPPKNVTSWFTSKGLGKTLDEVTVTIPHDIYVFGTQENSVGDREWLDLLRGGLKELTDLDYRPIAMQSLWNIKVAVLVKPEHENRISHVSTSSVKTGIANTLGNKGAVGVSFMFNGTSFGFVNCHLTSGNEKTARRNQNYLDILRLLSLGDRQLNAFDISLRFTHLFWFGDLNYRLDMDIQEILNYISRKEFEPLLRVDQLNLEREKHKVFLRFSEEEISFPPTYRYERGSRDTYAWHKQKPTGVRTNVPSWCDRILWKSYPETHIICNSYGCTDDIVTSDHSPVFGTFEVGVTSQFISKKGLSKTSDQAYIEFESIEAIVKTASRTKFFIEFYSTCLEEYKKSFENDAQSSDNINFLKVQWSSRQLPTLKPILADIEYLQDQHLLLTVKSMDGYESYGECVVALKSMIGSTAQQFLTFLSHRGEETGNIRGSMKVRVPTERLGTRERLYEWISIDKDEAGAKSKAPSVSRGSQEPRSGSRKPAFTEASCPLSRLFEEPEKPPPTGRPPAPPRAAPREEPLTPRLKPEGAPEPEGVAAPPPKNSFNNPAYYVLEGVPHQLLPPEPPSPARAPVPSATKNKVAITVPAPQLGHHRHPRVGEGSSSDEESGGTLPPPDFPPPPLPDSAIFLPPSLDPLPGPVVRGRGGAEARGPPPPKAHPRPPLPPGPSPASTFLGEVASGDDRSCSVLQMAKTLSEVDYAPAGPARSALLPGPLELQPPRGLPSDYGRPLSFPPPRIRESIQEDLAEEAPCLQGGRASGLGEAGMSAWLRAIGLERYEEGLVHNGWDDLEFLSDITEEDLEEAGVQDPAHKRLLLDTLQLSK
UniProt Q68E01, whole entry, looked up: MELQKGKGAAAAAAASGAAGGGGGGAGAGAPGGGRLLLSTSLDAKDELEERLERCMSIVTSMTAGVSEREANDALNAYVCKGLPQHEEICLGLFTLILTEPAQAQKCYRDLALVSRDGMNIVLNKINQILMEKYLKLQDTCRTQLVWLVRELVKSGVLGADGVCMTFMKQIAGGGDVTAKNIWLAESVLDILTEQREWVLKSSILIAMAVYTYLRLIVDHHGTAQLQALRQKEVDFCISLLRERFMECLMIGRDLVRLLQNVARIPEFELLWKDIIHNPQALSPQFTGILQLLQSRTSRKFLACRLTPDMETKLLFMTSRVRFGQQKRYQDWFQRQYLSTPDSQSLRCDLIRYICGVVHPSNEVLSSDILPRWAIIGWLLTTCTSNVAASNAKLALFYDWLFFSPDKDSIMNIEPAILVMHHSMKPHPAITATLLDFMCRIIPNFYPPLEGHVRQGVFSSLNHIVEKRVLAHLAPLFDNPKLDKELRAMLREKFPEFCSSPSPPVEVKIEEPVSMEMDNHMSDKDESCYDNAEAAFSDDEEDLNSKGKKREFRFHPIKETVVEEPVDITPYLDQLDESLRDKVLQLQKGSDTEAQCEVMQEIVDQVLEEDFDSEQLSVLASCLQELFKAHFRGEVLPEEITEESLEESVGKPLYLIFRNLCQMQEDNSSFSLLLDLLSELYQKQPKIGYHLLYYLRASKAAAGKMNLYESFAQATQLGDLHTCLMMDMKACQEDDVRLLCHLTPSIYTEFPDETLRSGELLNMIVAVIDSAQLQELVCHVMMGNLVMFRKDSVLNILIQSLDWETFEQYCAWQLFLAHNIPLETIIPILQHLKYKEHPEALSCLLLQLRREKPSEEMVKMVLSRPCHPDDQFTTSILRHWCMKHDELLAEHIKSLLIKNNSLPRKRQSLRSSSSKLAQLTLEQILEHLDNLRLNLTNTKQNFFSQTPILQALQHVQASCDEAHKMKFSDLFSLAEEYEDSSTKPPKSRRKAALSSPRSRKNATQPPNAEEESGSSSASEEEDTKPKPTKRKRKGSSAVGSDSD
UniProt Q9BUE6: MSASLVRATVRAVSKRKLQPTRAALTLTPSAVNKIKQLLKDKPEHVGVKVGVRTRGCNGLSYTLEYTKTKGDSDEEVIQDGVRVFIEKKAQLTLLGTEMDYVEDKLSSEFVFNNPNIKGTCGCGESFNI
UniProt O75054: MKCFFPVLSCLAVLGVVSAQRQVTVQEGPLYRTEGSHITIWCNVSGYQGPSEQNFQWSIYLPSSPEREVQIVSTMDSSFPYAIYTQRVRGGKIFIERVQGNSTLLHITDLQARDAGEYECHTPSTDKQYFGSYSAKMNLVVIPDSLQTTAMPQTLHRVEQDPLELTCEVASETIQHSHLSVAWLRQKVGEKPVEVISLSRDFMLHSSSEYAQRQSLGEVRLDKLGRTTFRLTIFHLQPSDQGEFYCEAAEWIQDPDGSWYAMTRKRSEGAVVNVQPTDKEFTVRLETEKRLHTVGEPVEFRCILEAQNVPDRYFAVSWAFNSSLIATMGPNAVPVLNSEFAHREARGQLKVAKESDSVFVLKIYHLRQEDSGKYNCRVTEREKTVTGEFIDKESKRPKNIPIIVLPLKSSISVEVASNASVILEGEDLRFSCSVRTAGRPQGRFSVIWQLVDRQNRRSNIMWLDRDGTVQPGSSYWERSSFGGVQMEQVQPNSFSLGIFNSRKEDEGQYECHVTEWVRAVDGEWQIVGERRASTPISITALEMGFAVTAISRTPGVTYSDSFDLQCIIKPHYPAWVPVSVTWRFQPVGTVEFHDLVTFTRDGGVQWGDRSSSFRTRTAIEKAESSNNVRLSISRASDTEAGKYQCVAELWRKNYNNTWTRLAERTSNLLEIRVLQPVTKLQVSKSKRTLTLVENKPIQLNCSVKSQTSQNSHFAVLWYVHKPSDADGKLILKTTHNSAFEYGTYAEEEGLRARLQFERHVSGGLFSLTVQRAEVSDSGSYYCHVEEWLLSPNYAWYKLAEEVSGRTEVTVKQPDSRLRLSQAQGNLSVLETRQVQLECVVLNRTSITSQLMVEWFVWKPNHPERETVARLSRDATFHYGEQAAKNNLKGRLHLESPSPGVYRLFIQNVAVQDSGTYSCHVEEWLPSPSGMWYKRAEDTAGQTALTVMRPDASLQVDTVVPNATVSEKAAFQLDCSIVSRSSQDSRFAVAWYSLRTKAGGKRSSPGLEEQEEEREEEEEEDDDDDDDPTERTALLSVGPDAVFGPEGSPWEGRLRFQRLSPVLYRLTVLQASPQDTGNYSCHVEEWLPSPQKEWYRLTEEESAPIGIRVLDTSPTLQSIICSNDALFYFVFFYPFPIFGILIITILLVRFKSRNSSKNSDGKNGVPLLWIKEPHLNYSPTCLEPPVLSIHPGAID
UniProt Q8TEX9: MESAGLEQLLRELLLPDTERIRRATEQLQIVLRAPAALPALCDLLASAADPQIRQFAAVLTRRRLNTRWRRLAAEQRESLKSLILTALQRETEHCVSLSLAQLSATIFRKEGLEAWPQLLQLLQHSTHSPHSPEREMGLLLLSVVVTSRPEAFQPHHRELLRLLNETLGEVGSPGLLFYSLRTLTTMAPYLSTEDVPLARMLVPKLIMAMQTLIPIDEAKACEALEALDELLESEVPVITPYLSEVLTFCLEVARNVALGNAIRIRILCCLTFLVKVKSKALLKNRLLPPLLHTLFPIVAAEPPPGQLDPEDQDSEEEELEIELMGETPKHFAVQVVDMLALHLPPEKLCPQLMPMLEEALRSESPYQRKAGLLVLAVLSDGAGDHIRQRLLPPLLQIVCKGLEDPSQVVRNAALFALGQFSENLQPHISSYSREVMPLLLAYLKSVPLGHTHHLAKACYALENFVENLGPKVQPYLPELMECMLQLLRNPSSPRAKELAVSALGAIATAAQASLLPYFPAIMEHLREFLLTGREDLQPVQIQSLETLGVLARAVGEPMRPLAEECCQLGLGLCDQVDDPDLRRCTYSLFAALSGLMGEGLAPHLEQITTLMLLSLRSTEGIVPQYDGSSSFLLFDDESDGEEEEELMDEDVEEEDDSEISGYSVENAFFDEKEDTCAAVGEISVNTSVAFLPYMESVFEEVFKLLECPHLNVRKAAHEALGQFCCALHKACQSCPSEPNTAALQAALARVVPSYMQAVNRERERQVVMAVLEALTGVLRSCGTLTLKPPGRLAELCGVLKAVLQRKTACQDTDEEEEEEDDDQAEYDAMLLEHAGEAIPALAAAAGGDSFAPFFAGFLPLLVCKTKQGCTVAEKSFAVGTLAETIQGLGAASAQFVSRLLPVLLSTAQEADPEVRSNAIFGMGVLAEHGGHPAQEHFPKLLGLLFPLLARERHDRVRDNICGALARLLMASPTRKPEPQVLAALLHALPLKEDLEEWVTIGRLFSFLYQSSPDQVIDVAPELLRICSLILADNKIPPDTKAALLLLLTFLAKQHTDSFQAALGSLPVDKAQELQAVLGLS
UniProt Q06033: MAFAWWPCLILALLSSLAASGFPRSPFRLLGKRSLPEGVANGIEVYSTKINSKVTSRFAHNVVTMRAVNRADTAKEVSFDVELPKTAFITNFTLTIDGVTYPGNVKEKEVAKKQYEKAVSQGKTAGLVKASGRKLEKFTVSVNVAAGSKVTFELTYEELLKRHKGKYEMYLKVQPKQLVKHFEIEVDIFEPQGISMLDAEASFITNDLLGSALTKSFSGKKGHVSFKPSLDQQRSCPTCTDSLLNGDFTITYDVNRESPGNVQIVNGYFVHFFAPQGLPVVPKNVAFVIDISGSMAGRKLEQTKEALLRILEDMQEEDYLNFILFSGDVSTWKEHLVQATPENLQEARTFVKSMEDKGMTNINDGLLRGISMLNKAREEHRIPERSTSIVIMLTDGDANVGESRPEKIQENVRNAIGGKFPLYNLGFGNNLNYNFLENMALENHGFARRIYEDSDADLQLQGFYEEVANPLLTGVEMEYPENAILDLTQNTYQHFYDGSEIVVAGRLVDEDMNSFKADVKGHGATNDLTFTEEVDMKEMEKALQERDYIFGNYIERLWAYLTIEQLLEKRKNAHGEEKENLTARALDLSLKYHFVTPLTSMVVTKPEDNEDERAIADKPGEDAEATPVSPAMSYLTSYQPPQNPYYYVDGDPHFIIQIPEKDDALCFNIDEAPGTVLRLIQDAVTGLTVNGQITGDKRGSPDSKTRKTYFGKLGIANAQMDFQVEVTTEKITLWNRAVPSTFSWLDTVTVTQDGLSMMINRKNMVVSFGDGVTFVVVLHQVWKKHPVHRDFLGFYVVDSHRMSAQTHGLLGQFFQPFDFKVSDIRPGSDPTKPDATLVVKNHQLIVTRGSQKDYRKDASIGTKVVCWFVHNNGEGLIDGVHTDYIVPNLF

What was measured:
Assay in all cases: log2 fold change, soluble protein after heating vs DMSO (PISA); higher = thermal stabilisation; K562 cells, 10 uM, 30 min; active = over 0.2 and 3.5 SD of the protein, either way, in both replicates (recomputed)
saracatinib = compound: CN1CCN(CCOc2cc(OC3CCOCC3)c3c(Nc4c(Cl)ccc5c4OCO5)ncnc3c2)CC1 [saracatinib]
In short: (§1)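 Aliquots of K562 cells (2×10^6 cells/mL) treated with 10 μM compound for 30 min were heated for 3 min over 48°C-58°C. After pooling and extraction in PBS with 0.5% NP-40 at 4°C, soluble protein from a 21,000xg, 90 min spin was quantified by TMTpro 16plex LC-MS/MS with channel sums equalised. Thermal stability is expressed against control samples, from duplicates, as a log2 fold change.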

sotrastaurin = compound: CN1CCN(c2nc(C3=C(c4c[nH]c5ccccc45)C(=O)NC3=O)c3ccccc3n2)CC1 [sotrastaurin]
In short: as §1

alvocidib = compound: CN1CC[C@H](c2c(O)cc(O)c3c(=O)cc(-c4ccccc4Cl)oc23)[C@H](O)C1 [alvocidib]
In short: as §1

Tubastatin A = compound: CN1CCc2c(c3ccccc3n2Cc2ccc(C(=O)NO)cc2)C1 [Tubastatin A]
In short: as §1

[1] = compound: CNC(=O)C1=CC=CC=C1NC2=NC(=NC=C2Cl)NC3=C(C=C(C=C3)N4CCOCC4)OC
In short: as §1

defactinib = compound: CNC(=O)c1ccc(Nc2ncc(C(F)(F)F)c(NCc3nccnc3N(C)S(C)(=O)=O)n2)cc1 [defactinib]
In short: as §1

rucaparib = compound: CNCc1ccc(-c2[nH]c3cc(F)cc4c3c2CCNC4=O)cc1 [rucaparib]
In short: as §1

[2] = compound: CNc1nc(-c2ccc3c(N)n[nH]c3c2)cc(N2C[C@@H](C(=O)NC3CCCCC3)CC[C@H]2C)n1
In short: as §1

encorafenib = compound: COC(=O)N[C@@H](C)CNc1nccc(-c2cn(C(C)C)nc2-c2cc(Cl)cc(NS(C)(=O)=O)c2F)n1 [encorafenib]
In short: as §1

[3] = compound: COC(=O)[C@H](CCSC)NC(=O)C1=C(C=C(C=C1)NC[C@H](CS)N)C2=CC=CC=C2
In short: as §1

[4] = compound: COC1=CC=C(C=C1)CN2C=CC3=C2C=C(C=C3)C(=O)NO
In short: as §1

filanesib = compound: CON(C)C(=O)N1N=C(c2cc(F)ccc2F)S[C@@]1(CCCN)c1ccccc1 [filanesib]
In short: as §1

zotarolimus = compound: CO[C@H]1C[C@@H]2CC[C@@H](C)[C@@](O)(O2)C(=O)C(=O)N2CCCC[C@H]2C(=O)O[C@H]([C@H](C)C[C@@H]2CC[C@H](n3cnnn3)[C@H](OC)C2)CC(=O)[C@H](C)/C=C(\C)[C@@H](O)[C@@H](OC)C(=O)[C@H](C)C[C@H](C)/C=C/C=C/C=C/1C [zotarolimus]
In short: as §1

idasanutlin = compound: COc1cc(C(=O)O)ccc1NC(=O)[C@@H]1N[C@@H](CC(C)(C)C)[C@](C#N)(c2ccc(Cl)cc2F)[C@H]1c1cccc(Cl)c1F [idasanutlin]
In short: as §1

alisertib = compound: COc1cc(Nc2ncc3c(n2)-c2ccc(Cl)cc2C(c2c(F)cccc2OC)=NC3)ccc1C(=O)O [alisertib]
In short: as §1

[5] = compound: COc1cc2nc(-c3cc(F)ccc3O)nc(N[C@@H]3CNC[C@H]3C(C)(C)O)c2cc1OC
In short: as §1

gefitinib = compound: COc1cc2ncnc(Nc3ccc(F)c(Cl)c3)c2cc1OCCCN1CCOCC1 [gefitinib]
In short: as §1

[6] = compound: COc1cccc2cc(-c3nc([C@H]4CC[C@H](C(=O)O)CC4)n4ncnc(N)c34)[nH]c12
In short: as §1

lapatinib = compound: CS(=O)(=O)CCNCc1ccc(-c2ccc3ncnc(Nc4ccc(OCc5cccc(F)c5)c(Cl)c4)c3c2)o1 [lapatinib]
In short: as §1

pictilisib = compound: CS(=O)(=O)N1CCN(Cc2cc3nc(-c4cccc5[nH]ncc45)nc(N4CCOCC4)c3s2)CC1 [pictilisib]
In short: as §1

Measured: log2 fold change

ISOC1 (UniProt Q96CN7)
inactive: saracatinib 0.027 | sotrastaurin 0.052 | alvocidib 0.024 | Tubastatin A -0.003 | [1] -0.025 | defactinib -0.013 | rucaparib -0.054 | [2] -0.016 | encorafenib -0.048 | [3] 0.026 | [4] -0.003 | filanesib -0.002 | zotarolimus 0.003 | idasanutlin -0.008 | alisertib -0.007 | [5] 0.007 | gefitinib -0.001 | [6] 0.046 | lapatinib -0.059 | pictilisib 0.072

ITFG1 (UniProt Q8TB96)
inactive: saracatinib 0.167 | sotrastaurin 0.062 | alvocidib -0.015 | Tubastatin A 0.011 | [1] 0.008 | defactinib -0.067 | rucaparib 0.166 | [2] 0.076 | encorafenib -0.075 | [3] 0.201 | [4] -0.08 | filanesib 0.001 | zotarolimus 0.02 | idasanutlin 0.052 | alisertib -0.173 | [5] -0.021 | gefitinib 0 | [6] -0.034 | lapatinib 0.011 | pictilisib 0.053

INTS10 (UniProt Q9NVR2)
inactive: saracatinib 0.019 | sotrastaurin -0.04 | alvocidib -0.055 | Tubastatin A 0.08 | [1] 0 | defactinib -0.196 | rucaparib 0.011 | [2] -0.08 | encorafenib 0.066 | [3] -0.069 | [4] 0.06 | filanesib -0.077 | zotarolimus 0.011 | idasanutlin -0.052 | alisertib -0.033 | [5] -0.036 | gefitinib 0.009 | [6] -0.087 | lapatinib -0.022 | pictilisib 0.063

IGF2BP3 (UniProt O00425)
inactive: saracatinib -0.123 | sotrastaurin -0.185 | alvocidib 0.158 | Tubastatin A 0.156 | [1] -0.031 | defactinib 0.116 | rucaparib 0.621 | [2] 0.118 | encorafenib 0.302 | [3] -0.034 | [4] -0.056 | filanesib 0.452 | zotarolimus 0.056 | idasanutlin 0.209 | alisertib -0.134 | [5] -0.347 | gefitinib -0.005 | [6] -0.246 | lapatinib 0.234 | pictilisib -0.032

INPPL1 (UniProt O15357)
inactive: saracatinib -0.133 | sotrastaurin -0.141 | alvocidib -0.104 | Tubastatin A -0.005 | [1] 0.041 | defactinib -0.035 | rucaparib 0.082 | [2] 0.022 | encorafenib 0.031 | [3] -0.072 | [4] -0.029 | filanesib 0.091 | zotarolimus 0.072 | idasanutlin -0.02 | alisertib 0.643 | [5] 0.052 | gefitinib 0.039 | [6] -0.151 | lapatinib -0.022 | pictilisib -0.191

INTS3 (UniProt Q68E01)
inactive: saracatinib 0.004 | sotrastaurin -0.112 | alvocidib -0.098 | Tubastatin A 0.034 | [1] -0.006 | defactinib -0.061 | rucaparib 0.014 | [2] -0.037 | encorafenib -0.061 | [3] 0.028 | [4] 0.039 | filanesib 0.032 | zotarolimus 0.047 | idasanutlin -0.05 | alisertib -0.023 | [5] 0.033 | gefitinib 0.115 | [6] 0.148 | lapatinib -0.003 | pictilisib 0.019

IMPDH1 isoform 6 (UniProt P20839)
inactive: saracatinib -0.059 | sotrastaurin 0.008 | alvocidib 0.047 | Tubastatin A 0.055 | [1] -0.032 | defactinib 0.088 | rucaparib 0.062 | [2] 0.022 | encorafenib 0.032 | [3] -0.032 | [4] -0.009 | filanesib 0.074 | zotarolimus -0.005 | idasanutlin 0.009 | alisertib -0.111 | [5] -0.049 | gefitinib -0.027 | [6] -0.053 | lapatinib 0.06 | pictilisib -0.033

IMPDH2 (UniProt P12268)
inactive: saracatinib -0.071 | sotrastaurin -0.007 | alvocidib 0.048 | Tubastatin A 0.065 | [1] -0.036 | defactinib 0.067 | rucaparib 0.024 | [2] 0.049 | encorafenib 0.069 | [3] -0.022 | [4] -0.015 | filanesib 0.04 | zotarolimus 0.046 | idasanutlin 0.024 | alisertib -0.061 | [5] -0.078 | gefitinib -0.045 | [6] -0.039 | lapatinib 0.063 | pictilisib -0.016

ITGA5 (UniProt P08648)
inactive: saracatinib 0.009 | sotrastaurin 0.042 | alvocidib -0.022 | Tubastatin A -0.005 | [1] -0.056 | defactinib -0.044 | rucaparib 0.031 | [2] 0.03 | encorafenib -0.014 | [3] 0.01 | [4] 0.015 | filanesib 0.037 | zotarolimus -0.045 | idasanutlin 0.015 | alisertib -0.118 | [5] 0.017 | gefitinib 0.019 | [6] 0.058 | lapatinib -0.04 | pictilisib 0.069

IDH2 (UniProt P48735)
inactive: saracatinib 0.02 | sotrastaurin 0.01 | alvocidib -0.06 | Tubastatin A -0.017 | [1] -0.018 | defactinib -0.012 | rucaparib -0.037 | [2] -0.009 | encorafenib -0.005 | [3] 0.014 | [4] -0.018 | filanesib -0.035 | zotarolimus 0.023 | idasanutlin -0.074 | alisertib -0.025 | [5] 0.031 | gefitinib 0.025 | [6] 0.03 | lapatinib 0.013 | pictilisib 0.096

ISCA1 isoform 2 (UniProt Q9BUE6)
inactive: saracatinib 0.031 | sotrastaurin 0.01 | alvocidib -0.053 | Tubastatin A -0.154 | [1] 0.021 | defactinib 0.01 | rucaparib 0.026 | [2] -0.051 | encorafenib -0.118 | [3] 0.069 | [4] -0.091 | filanesib -0.128 | zotarolimus 0.065 | idasanutlin -0.001 | alisertib -0.009 | [5] -0.011 | gefitinib -0.091 | [6] 0.061 | lapatinib 0.036 | pictilisib 0.018

IGSF3 (UniProt O75054)
inactive: saracatinib -0.003 | sotrastaurin 0.049 | alvocidib -0.015 | Tubastatin A -0.027 | [1] -0.035 | defactinib -0.009 | rucaparib -0.112 | [2] 0.003 | encorafenib 0.008 | [3] 0.014 | [4] -0.07 | filanesib 0.057 | zotarolimus 0.002 | idasanutlin -0.03 | alisertib -0.014 | [5] 0.075 | gefitinib 0.007 | [6] 0.079 | lapatinib -0.07 | pictilisib 0.078

IMP3 (UniProt Q9NV31)
inactive: saracatinib 0.062 | sotrastaurin -0.224 | alvocidib 0.039 | Tubastatin A 1.39 | [1] -0.293 | defactinib -0.213 | rucaparib -0.204 | [2] 0.129 | encorafenib -0.23 | [3] -0.152 | [4] -0.204 | filanesib -0.132 | zotarolimus 0.022 | idasanutlin -0.04 | alisertib -0.131 | [5] 0.159 | gefitinib 0.093 | [6] 0.032 | lapatinib -0.131 | pictilisib 0.257

IKBIP isoform 4 (UniProt Q70UQ0)
inactive: saracatinib -0.045 | sotrastaurin 0.007 | alvocidib 0.001 | Tubastatin A -0.022 | [1] 0.034 | defactinib 0.006 | rucaparib 0.02 | [2] -0.032 | encorafenib 0 | [3] 0.007 | [4] -0.042 | filanesib 0.02 | zotarolimus -0.015 | idasanutlin 0.052 | alisertib -0.048 | [5] 0.055 | gefitinib 0 | [6] -0.022 | lapatinib 0.002 | pictilisib 0.008

Copied from the entries so far (2 entries):
INPPL1 (UniProt O15357)
inactive: saracatinib -0.133 | sotrastaurin -0.141 | alvocidib -0.104 | Tubastatin A -0.005 | [1] 0.041 | defactinib -0.035 | rucaparib 0.082 | [2] 0.022 | encorafenib 0.031 | [3] -0.072 | [4] -0.029 | filanesib 0.091 | zotarolimus 0.072 | idasanutlin -0.02 | alisertib 0.643 | [5] 0.052 | gefitinib 0.039 | [6] -0.151 | lapatinib -0.022 | pictilisib -0.191

INTS3 (UniProt Q68E01)
inactive: saracatinib 0.004 | sotrastaurin -0.112 | alvocidib -0.098 | Tubastatin A 0.034 | [1] -0.006 | defactinib -0.061 | rucaparib 0.014 | [2] -0.037 | encorafenib -0.061 | [3] 0.028 | [4] 0.039 | filanesib 0.032 | zotarolimus 0.047 | idasanutlin -0.05 | alisertib -0.023 | [5] 0.033 | gefitinib 0.115 | [6] 0.148 | lapatinib -0.003 | pictilisib 0.019

Next part:

IPO4 isoform 2 (UniProt Q8TEX9)
inactive: saracatinib -0.029 | sotrastaurin -0.203 | alvocidib 0.002 | Tubastatin A -0.032 | [1] 0.004 | defactinib -0.033 | rucaparib 0.201 | [2] 0.005 | encorafenib 0.138 | [3] -0.054 | [4] 0.157 | filanesib 0.057 | zotarolimus 0.067 | idasanutlin 0.018 | alisertib -0.163 | [5] -0.095 | gefitinib 0.005 | [6] -0.121 | lapatinib 0.035 | pictilisib -0.034

ITIH3 (UniProt Q06033)
inactive: saracatinib 0.276 | sotrastaurin 0.325 | alvocidib 0.093 | Tubastatin A -0.119 | [1] 0.054 | defactinib -0.01 | rucaparib -0.167 | [2] 0.058 | encorafenib -0.042 | [3] 0.171 | [4] -0.013 | filanesib 0.116 | zotarolimus -0.188 | idasanutlin 0.074 | alisertib 0.003 | [5] -0.168 | gefitinib -0.043 | [6] 0.279 | lapatinib -0.068 | pictilisib -0.177
